# Results reported in PubChem BioAssay (NCATS).
# Chains of the proteins cited; added tags and fusions are not shown. Lines headed by an entry give the natural chain unless they say otherwise; changes in a name come on top.
# UniProt P05177, whole entry, looked up: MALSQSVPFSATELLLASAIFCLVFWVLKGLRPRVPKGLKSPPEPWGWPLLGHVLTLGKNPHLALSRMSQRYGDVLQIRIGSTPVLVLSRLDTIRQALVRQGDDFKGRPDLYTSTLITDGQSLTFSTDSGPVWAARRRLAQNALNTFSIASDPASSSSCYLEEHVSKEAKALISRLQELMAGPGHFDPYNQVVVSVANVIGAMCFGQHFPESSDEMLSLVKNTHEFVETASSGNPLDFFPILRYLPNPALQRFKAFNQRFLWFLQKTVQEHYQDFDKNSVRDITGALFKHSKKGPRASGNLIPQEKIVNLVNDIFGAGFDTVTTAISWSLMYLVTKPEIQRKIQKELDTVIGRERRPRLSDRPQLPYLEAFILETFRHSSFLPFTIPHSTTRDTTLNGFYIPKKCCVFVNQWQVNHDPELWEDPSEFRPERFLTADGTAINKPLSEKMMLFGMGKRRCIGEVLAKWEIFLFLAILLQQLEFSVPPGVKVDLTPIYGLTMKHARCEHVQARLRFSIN
# UniProt P09958, whole entry, looked up: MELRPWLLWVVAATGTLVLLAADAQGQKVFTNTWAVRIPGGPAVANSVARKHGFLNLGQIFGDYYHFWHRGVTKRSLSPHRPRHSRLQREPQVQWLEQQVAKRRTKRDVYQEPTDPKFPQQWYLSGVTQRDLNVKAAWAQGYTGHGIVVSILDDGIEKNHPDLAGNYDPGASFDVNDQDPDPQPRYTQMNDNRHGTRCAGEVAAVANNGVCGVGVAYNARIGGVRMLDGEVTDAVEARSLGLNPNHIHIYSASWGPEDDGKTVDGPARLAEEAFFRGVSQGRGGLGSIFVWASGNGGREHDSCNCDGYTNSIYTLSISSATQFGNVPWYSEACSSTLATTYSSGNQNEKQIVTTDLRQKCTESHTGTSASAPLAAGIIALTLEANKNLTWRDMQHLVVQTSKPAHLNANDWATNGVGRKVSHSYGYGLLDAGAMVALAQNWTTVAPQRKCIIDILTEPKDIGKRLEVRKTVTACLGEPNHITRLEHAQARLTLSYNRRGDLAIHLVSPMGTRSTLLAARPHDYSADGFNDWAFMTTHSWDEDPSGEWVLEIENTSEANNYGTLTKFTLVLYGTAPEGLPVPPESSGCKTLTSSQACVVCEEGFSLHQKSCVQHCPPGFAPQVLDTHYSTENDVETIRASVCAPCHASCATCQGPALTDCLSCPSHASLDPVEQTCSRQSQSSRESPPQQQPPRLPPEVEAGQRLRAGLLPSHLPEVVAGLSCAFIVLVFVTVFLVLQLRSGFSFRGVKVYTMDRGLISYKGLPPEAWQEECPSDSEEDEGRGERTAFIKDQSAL
# UniProt P10828: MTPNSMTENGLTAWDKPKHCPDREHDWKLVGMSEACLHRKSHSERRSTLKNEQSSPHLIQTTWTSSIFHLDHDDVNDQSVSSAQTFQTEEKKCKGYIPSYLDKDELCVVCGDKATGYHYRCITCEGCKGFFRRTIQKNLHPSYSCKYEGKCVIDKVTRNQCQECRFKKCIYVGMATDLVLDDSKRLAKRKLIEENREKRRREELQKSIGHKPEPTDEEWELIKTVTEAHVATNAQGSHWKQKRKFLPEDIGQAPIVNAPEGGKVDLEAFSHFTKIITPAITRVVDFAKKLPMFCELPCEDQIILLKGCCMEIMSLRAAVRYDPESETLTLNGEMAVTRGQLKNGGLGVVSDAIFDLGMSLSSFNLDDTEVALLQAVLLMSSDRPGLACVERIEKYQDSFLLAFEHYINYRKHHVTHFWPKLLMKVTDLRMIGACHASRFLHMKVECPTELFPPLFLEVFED
# UniProt P10635, whole entry, looked up: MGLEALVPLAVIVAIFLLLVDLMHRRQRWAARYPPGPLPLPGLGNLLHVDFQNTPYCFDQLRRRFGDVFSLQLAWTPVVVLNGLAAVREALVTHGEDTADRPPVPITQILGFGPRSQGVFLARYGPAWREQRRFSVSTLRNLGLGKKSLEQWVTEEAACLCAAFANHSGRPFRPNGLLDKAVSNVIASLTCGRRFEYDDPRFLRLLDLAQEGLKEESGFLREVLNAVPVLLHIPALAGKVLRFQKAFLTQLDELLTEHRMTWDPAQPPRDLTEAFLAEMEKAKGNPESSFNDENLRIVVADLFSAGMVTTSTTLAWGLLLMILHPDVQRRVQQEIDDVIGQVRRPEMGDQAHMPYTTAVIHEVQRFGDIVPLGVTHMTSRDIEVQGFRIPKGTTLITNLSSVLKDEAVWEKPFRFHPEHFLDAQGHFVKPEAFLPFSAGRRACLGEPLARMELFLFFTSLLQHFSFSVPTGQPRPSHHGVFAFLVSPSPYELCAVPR
# UniProt Q9GZX7: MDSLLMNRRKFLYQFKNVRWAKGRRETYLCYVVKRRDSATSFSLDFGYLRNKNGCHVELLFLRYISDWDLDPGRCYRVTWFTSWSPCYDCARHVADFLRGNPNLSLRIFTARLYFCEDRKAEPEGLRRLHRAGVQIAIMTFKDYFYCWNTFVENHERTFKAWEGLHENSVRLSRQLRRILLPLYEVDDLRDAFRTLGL
# UniProt P39748, whole entry, looked up: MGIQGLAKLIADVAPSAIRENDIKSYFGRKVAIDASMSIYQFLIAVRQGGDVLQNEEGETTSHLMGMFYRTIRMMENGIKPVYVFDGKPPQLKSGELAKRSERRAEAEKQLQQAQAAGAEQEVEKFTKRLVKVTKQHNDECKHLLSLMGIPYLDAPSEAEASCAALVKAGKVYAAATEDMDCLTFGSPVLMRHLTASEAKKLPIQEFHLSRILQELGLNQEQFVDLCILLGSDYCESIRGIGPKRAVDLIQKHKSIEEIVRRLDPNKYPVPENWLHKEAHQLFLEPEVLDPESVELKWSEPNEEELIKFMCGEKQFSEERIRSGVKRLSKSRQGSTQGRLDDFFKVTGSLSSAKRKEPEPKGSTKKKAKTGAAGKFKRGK
# UniProt C7C422: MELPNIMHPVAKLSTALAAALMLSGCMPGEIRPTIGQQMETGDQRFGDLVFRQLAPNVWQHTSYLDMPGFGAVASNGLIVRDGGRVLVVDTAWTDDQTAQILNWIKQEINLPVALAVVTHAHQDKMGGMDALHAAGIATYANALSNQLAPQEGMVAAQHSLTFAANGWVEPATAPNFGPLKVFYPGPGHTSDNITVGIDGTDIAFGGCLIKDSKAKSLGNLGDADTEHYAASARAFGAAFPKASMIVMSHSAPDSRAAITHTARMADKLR
# Inconclusive results, whose numbers are uncertain, are shown with a selection of clear calls. For part of these data: A potency beside an inconclusive call is a rough fit, not a confirmed value. For part of these data: A note “side channel” means that the fit belongs to a control or component signal, not to the main read-out. Active and inactive are the calls of the source. Unless noted, calls come from the whole dose curve; as a rule, active = well fitted curve in the direction sought with a large enough effect; inconclusive = small, poorly fitted or top-dose-only effect, or another doubt; inactive = no such curve, though single readings can be large; an effect the other way counts as inactive or inconclusive.
# Columns and labels:
# [1] = Validation qHTS assay for inhibitors of Activation Induced Cytidine Deaminase (AID): UDG Counterscreen signal (AID 1347427); note: potency is the fitted concentration of half-maximal effect
# Procedure, shortened: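 Fluorescence at 560 nm excitation, 665 nm emission reports UDG signal after 250 mM NaOH (2x) addition and 30 min. Enzymes (AID 1 uM, UDG 2 U/mL, at 4/3x) preincubated 10 min with compound, then 4 h with 4x 250 nM DJC20/DJC23 substrate at room temperature.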
# [2] = target: Cytochrome P450 1A2 (Homo sapiens) (UniProt P05177); test: p450-cyp1a2 (AID 410; calls by dose curve; note: potency is the fitted concentration of half-maximal effect)
# Procedure, shortened: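 Luminescent demethylation readout: Luciferin-ME (100uM, equal to Km) turned over by 20nM CYP1A2 for 60 min at room temperature after NADPH regeneration addition, following 10 min compound preincubation. Normalization used 57 uM furafylline as full inhibition.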
# [3] = qHTS for Activators of Parkin Expression: LOPAC Validation Assay (FLuc Reporter) (AID 720573; note: potency is the fitted concentration of half-maximal effect)
# Procedure, shortened: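 Neuronal cell line stably carrying FLuc/NLuc coincidence reporter under Parkin promoter; cells plated 24 h, then compounds added in 7-point dose response for 24 h at 37 C. FLuc luminescence read; normalized to DMSO and positive control (100%).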
# [4] = target: Furin (Homo sapiens) (UniProt P09958); test: Furin counterscreen qHTS for Zika virus inhibitors (AID 1347149);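 note: purified recombinant full-length human furin enzyme at 5 nM; fluorescence gain from furin cutting a BOC-RVRR-AMC peptide substrate over 15 min; top concentration of the series differs between compounds; plate controls were no-inhibitor control for no effect and no-enzyme control for full effect; nearly all actives have a fitted effect of over 70% in size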
# Procedure, shortened: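 Counterscreen measures cleavage of 2 microM BOC-RVRR-AMC, below its ~15 microM Km, by 5 nM full-length human furin at pH 7.0 after a 15-min compound preincubation. Inhibition derives from the 15-min fluorescence increase at 37C.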
# [5] = tested on: Zika virus NS2B-NS3 protease (linked construct); test: Confirmatory screen NINDS AMC qHTS for Zika virus inhibitors (AID 1347152); note: potency is the fitted concentration of half-maximal effect; nearly all actives have a fitted effect of over 70% in size
# Procedure, shortened: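 Purified NS2B-NS3 protease with NS2B hydrophilic domain linked to NS3 protease domain by flexible linker, 1 nM final in 10 mM Tris-HCl pH 8.0, 0.01% Tween 20. Compounds preincubated 15 min, room temperature; Bz-Nle-KRR-AMC 10 microM (Km 18.3 µM); 15-min fluorescence change, 4-parameter Hill fit.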
# [6] = HepG2 cells viability qHTS for Zika virus inhibitors (AID 1347168); note: potency is the fitted concentration of half-maximal effect
# Procedure, shortened: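 To flag cytotoxic protease inhibitors, viability is measured by ATP-dependent luminescence (CellTiter Glo) after cells attached overnight receive compound for 24 to 48 hours in DMEM with 4% FBS.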
# [7] = qHTS Assay for Identification of Small Molecule Agonists for NFkB Signaling Pathway (AID 928; calls by dose curve); conditions: NFkB beta-lactamase reporter cells, blue/green ratio
# Procedure, shortened: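 Activators were sought with TNF alpha co-added at 10 pM final (its EC50) to beta-lactamase reporter cells. Cells were plated in OPTI MEM with 0.5% FBS and exposed for 5 hrs at 37 C. The FRET substrate ratio was read at 460 and 530 nm.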
# [8] = target: Thyroid hormone receptor beta (Homo sapiens) (UniProt P10828); test: qHTS assay for small molecule agonists of thyroid hormone receptor beta signaling (AID 588545; calls by dose curve; note: potency is the fitted concentration of half-maximal effect;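 for Activation: 0% = DMSO only and 100% = 10 nM T3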); conditions: TR-UAS-bla GripTite HEK 293, beta-lactamase ratio, agonist mode, 18 h; activation: at 76.7 µM, percent of T3 response, DMSO as zero
# Procedure, shortened: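 TR-UAS-bla GripTite HEK 293 cells (2500/well, medium with 2% charcoal/dextran FBS) were treated in agonist mode for 18 h at 37 C, titrated. Beta-lactamase was read by CCF4 ratio after 2 h; normalized to 10 nM T3 (100%) and DMSO, Hill-fitted for EC50 and efficacy.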
# [9] = HTS Assay for Allosteric Antagonists of the Human D2 Dopamine Receptor: Hit Validation in HTRF (AID 624455); conditions: Cells stably expressing D1 dopamine receptor, inhibition mode;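 note: stable D1 dopamine receptor cell line scored for blocking the D1 response; potency is the fitted concentration of half-maximal effect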
# Procedure, shortened: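 Inhibition of the D1-mediated response was measured by HTRF. Cells used were a line stably expressing the D1 dopamine receptor.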
# [10] = qHTS assay for small molecule activators of the p53 signaling pathway (AID 651743; active = well fitted activation curve with a large enough effect in the signal ratio, not every such curve was filed as active; inconclusive = small, poorly fitted or top-dose-only effect, or a change in a side signal; the % refers to the signal ratio; note: potency is the fitted concentration of half-maximal effect); conditions: HCT-116 p53RE-bla, beta-lactamase FRET ratio, 16 h; activation: stronger effect = higher value
# Procedure, shortened: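 Agonist-mode quantitative HTS in HCT-116 cells carrying a p53-response-element beta-lactamase reporter; 16 h compound treatment at 37 C, then FRET substrate loading for 2 h at room temperature and fluorescence read.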
# [11] = target: Cytochrome P450 2D6 (Homo sapiens) (UniProt P10635); test: qHTS Assay for Inhibitors and Substrates of Cytochrome P450 2D6 (AID 891); note: nearly all actives have a fitted effect of over 60% in size; note: potency is the fitted concentration of half-maximal effect
# Procedure, shortened: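 Luminescent read-out of luciferin formed by 5 nM human CYP2D6 demethylating 30 uM Luciferin-ME EGE (Km level) over 60 min at room temperature after NADPH regeneration addition. Data normalized to full inhibition by 1.43 uM quinidine.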
# [12] = target: Single-stranded DNA cytosine deaminase (Homo sapiens) (UniProt Q9GZX7); test: Validation qHTS assay for inhibitors of Activation Induced Cytidine Deaminase (AID): AID signal (AID 1347429); note: potency is the fitted concentration of half-maximal effect
# Procedure, shortened: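 Compounds (final up to 114 uM) preincubated with AID plus UDG; 250 nM DJC20/DJC23 substrate mix (4x stock) added, 4 hr at room temperature, then NaOH, 30 min. Read 1 fluorescence at 540 nm excitation, 590 nm emission.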
# [13] = target: Flap endonuclease 1 (Homo sapiens) (UniProt P39748); test: qHTS Validation Assay for the Inhibitors of Human Flap endonuclease 1 (FEN1) (AID 488816); note: potency is the fitted concentration of half-maximal effect
# Procedure, shortened: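 Steps: add FEN1 (10 nM reagent) or buffer only; pin compounds; hold 15 min at room temperature; start with substrate, 50 nM final; read at 0 and 15 min; correct, normalize and fit a four-parameter Hill curve.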
# [14] = qHTS of Nrf2 Activators: LOPAC Validation (AID 624149); note: potency is the fitted concentration of half-maximal effect
# Procedure, shortened: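 Luciferase signal from ARE activation, read with Steady-Glo after 30 min at room temperature. Compounds were pin-transferred onto AREc32_Fluc cells (1000/well, OPTI-MEM/5% FBS, seeded overnight) and left 24 hr at 37 deg C.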
# [15] = target: Metallo-beta-lactamase type 2 (Klebsiella pneumoniae) (UniProt C7C422); test: qHTS to identify inhibitors of the New Delhi Metallo-beta-lactamase (NDM): assay validation screen against the NCATS LOPAC Collection (AID 1794843); note: potency is the fitted concentration of half-maximal effect
# Procedure, shortened: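 NDM-1 at 2 nM final in 50 mM HEPES pH 7.0 with 1 uM ZnSO4 and 0.01% Tween20 was preincubated with library compounds in DMSO. Nitrocefin (50 uM stock) was then added, and absorbance at 485 nm was read at the kinetic plateau.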
smiles,measurement,setting,value
CCOC(=O)C1=C(C)NC(C)=C(C(=O)OCC)C1c1c(F)c(F)c(F)c(F)c1F,Potency,[1],"inconclusive: 50.1 µM [inhibitor, partial curve, poor fit]"
COc1ccccc1N1CCN(CCN(C(=O)c2ccc(I)cc2)c2ccccn2)CC1,Potency,[2],inconclusive: 15.8 µM [decreasing]
Fc1cccc(/C=N/N=C/c2cccc(F)c2)c1,Potency,[3],"inconclusive: 9.2 µM [activator, partial curve]"
O=C(c1cc(O)c(O)c([N+](=O)[O-])c1)c1ccccc1F,Potency,[4],inactive
same,Potency,[5],"inconclusive: 6.81 µM [inhibitor, partial curve, poor fit]"
same,Potency,[6],inactive
COc1cc2c(CCNC(C)=O)c[nH]c2cc1Cl,Potency,[7],active: 3.16 µM
CC[C@@H]1Cc2cc(O)ccc2C2=C1c1ccc(O)cc1C[C@H]2CC,Potency,[8],"inconclusive: 14.1 µM [side channel, falling, partial curve, poor fit]"
same,Potency,[9],"inconclusive: 23.1 µM [inhibitor, single point]"
same,Potency,[10],"inconclusive: 39.8 µM [side channel, falling, partial curve]"
C=C1C(=O)O[C@@H]2[C@H]3O[C@]3(C)CCC=C(C)CC[C@@H]12,Potency,[2],inconclusive: 39.8 µM [decreasing]
same,Potency,[11],inactive
O=C(O)CNC(=O)C(CS)Cc1ccccc1 (stereo not given),Potency,[1],inactive
same,Potency,[12],inactive
S=C(S)N1CCCC1,Potency,[11],"inconclusive: 7.94 µM [inhibitor, full curve]"
COC1=C(OC)C(=O)c2ccccc2C1=O,Potency,[1],"inconclusive: 70.8 µM [inhibitor, single point]"
OCC1O[C@H]([S-])[C@H](O)[C@@H](O)[C@@H]1O.[Au+] (stereo not given in full),Potency,[13],active: 1.5 µM
same,Potency,[14],"inconclusive: 16.4 µM [activator, partial curve]"
same,Potency,[12],active: 12.6 µM
same,Potency,[15],"inconclusive: 7.94 µM [inhibitor, partial curve]"
CC[C@@H](C)[C@H]1O[C@]2(CC[C@H]1C)C[C@@H]1C[C@@H](CC=C(C)[C@@H](O[C@H]3C[C@H](OC)[C@@H](O[C@H]4C[C@H](OC)[C@@H](O)[C@H](C)O4)[C@H](C)O3)[C@@H](C)C=CC=C3CO[C@@H]4[C@H](O)C(C)=C[C@@H](C(=O)O1)[C@]34O)O2,Potency,[6],"inconclusive: 33 µM [cytotoxic, single point]"
O=C1Nc2ccc(I)cc2/C1=C/c1cc(Br)c(O)c(Br)c1,Potency,[7],"inconclusive: 8.91 µM [inhibitor, partial curve]"
same,Potency,[13],"inconclusive: 21.2 µM [inhibitor, partial curve]"
NC(=Nc1ccccc1)NC(=O)c1nc(Cl)c(N)nc1N,Potency,[7],"inconclusive: 7.94 µM [inhibitor, partial curve]"
same,Potency,[3],active: 8.2 µM
O=C(O)c1cc(=O)c2ccccc2[nH]1,Potency,[3],"inconclusive: 1.84 µM [activator, full curve, poor fit]"
COc1cccc(OC)c1OCCNCC1COc2ccccc2O1 (stereo not given),Potency,[9],active: 0.092 µM
CC(=O)N[C@@H](Cc1c[nH]c2ccccc12)C(=O)OCc1cc(C(F)(F)F)cc(C(F)(F)F)c1,Potency,[2],inconclusive: 31.6 µM [decreasing]
O=C(Nc1ccccc1)c1cc([N+](=O)[O-])ccc1Cl,Potency,[11],inactive
same,activation,[8],inactive: 7.92%

# Reprinted from the listing for reference:
smiles,measurement,setting,value
C=C1C(=O)O[C@@H]2[C@H]3O[C@]3(C)CCC=C(C)CC[C@@H]12,Potency,[2],inconclusive: 39.8 µM [decreasing]
same,Potency,[11],inactive
O=C(O)CNC(=O)C(CS)Cc1ccccc1 (stereo not given),Potency,[1],inactive
same,Potency,[12],inactive
S=C(S)N1CCCC1,Potency,[11],"inconclusive: 7.94 µM [inhibitor, full curve]"
COC1=C(OC)C(=O)c2ccccc2C1=O,Potency,[1],"inconclusive: 70.8 µM [inhibitor, single point]"
OCC1O[C@H]([S-])[C@H](O)[C@@H](O)[C@@H]1O.[Au+] (stereo not given in full),Potency,[13],active: 1.5 µM
same,Potency,[14],"inconclusive: 16.4 µM [activator, partial curve]"
